Assay results reported in publication PMC4546488.
No constants are given. Whether binding was seen depends on the method and setting. Binding seen in cells or lysates may run through a third protein. Some results given as binding are weak or reduced against the parent protein; the word gives no strength.

Sequences of proteins named here, by UniProt entry; tags and fusion partners are left off.
UniProt P04198: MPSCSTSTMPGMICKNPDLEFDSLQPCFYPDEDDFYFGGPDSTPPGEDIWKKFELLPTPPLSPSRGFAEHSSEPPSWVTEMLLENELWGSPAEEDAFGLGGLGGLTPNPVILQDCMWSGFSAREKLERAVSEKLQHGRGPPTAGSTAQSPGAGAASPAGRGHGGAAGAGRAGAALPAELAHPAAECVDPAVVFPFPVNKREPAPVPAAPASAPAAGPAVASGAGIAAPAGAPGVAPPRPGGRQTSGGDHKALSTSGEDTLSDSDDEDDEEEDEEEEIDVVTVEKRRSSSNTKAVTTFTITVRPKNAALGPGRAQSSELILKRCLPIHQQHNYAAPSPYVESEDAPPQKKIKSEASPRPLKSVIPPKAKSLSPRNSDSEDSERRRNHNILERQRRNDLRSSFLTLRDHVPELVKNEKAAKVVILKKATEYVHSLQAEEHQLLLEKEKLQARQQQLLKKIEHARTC
UniProt P61244: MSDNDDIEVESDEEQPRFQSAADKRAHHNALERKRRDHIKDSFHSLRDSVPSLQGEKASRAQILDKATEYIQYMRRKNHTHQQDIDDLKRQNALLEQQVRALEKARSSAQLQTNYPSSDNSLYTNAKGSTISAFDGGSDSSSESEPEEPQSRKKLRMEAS

Biological target: MYCN (human (endogenous in Tet-21/N)) (UniProt P04198)
Experiment: co-IP; lysate of untreated Tet-21/N cells (MYCN-ON), 1 mg extract, immunoprecipitated with anti-MYCN antibody (sc-53993), overnight at 4°C, washed in buffer F, blotted for MYCN, LSD1 and MAX

MAX (from UniProt P61244 1-160)
binding: binds
